From paper PMC11265427
These are yes or no findings as the source states them, for the method shown. In cells and extracts the contact can be indirect. Some results given as binding are weak or reduced against the parent protein; the word gives no strength.

Protein sequences, listed by entry. Tags and fused reporters are not part of them.
UniProt Q00765: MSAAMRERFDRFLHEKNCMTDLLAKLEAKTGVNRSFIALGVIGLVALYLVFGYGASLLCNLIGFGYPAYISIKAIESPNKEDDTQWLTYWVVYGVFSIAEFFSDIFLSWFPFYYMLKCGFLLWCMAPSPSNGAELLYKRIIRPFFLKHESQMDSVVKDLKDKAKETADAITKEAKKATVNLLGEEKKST

Molecular target: Receptor expression-enhancing protein 5 (REEP5) (UniProt Q00765)
Assay: co-IP; IP antibody coupled to AminoLink resin in a Pierce spin column; lysate oscillated with the resin for 2 h, washed, eluted, western blot with REEP5 and CLEC5A antibodies; which antibody precipitated is not stated

B1: C-type lectin member 5 A (CLEC5A) (protein, UniProt Q9NY25 1-188)
chain: MNWHMIISGLIVVVLKVVGMTLFLLYFPQIFNKSNDGFTTTRSYGTVSQIFGSSSPSPNGFITTRSYGTVCPKDWEFYQARCFFLSTSESSWNESRDFCKGKGSTLAIVNTPEKLKFLQDITDAEKYFIGLIYHREEKRWRWINNSVFNGNVTNQNQNFNCATIGLTKTFDAASCDISYRRICEKNAK
binding: binds
